This is one part of the list. Further columns of the screen follow, without active or inactive calls. The list favours compounds with an active or inconclusive main result. The note in brackets gives the kind of curve behind each potency; many fits are weak.
Assay: qHTS Assay for Lipid Storage Modulators in Drosophila S3 Cells;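 as to cell number change: cells counted by Cell Tracker Red CMTPX staining in the red channel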
Details: BODIPY lipid droplet fluorescence, 18-24 h; for cell number change: measured here: cell count max response, cells fed with added oleic acid
Outline: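 Laser-scanning cytometry quantifies lipid droplet accumulation (500–530 nm total intensity; droplet/cell object ratio) in oleic acid-fed (400 uM added) Drosophila S3 cells treated with a concentration series. 20 uM Triacsin C defined 100% inhibition.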

[1] = measured here: lipid fluorescence (Fed channel) AC50, cells fed with added oleic acid
[2] = measured here: cell number channel AC50, cells fed with added oleic acid

| Compound | cell number change [%] | AC50 [1] | AC50 [2] |
| --- | --- | --- | --- |
| Cc1ccccc1C(=O)N1CCN(c2ncccn2)CC1 | 4.5 | 0.00461 µM [rising, full curve, poor fit] | – |
| O=C(c1cc(F)c(F)cc1Cl)N1CCOCC1 | 33.6 | – | 5.17 µM [rising, full curve, poor fit] |
| CCCCC(=O)Nc1ccc(NC(=O)c2ccc(C)c([N+](=O)[O-])c2)cc1OC | 2.08 | 18.4 µM [rising, single point] | – |
| Cc1cc(Cl)ccc1OCCCC(N)=O | 0.146 | – | – |
| CCOC(=O)c1cnn(-c2nc(CC)nc3sc4c(c23)CCC4)c1N | 14.1 | 0.517 µM [rising, full curve] | – |
| Cc1ccc(NC(=O)C(=O)Nc2ccccn2)cc1 | 3.33 | – | – |
| Cn1c(CNC(=O)Nc2cccc(Cl)c2)nnc1SCc1ccccc1 | -15.6 | – | 0.164 µM [falling, full curve, poor fit] |
| NC(=O)CC(NC(=O)Cc1ccc(Cl)cc1)c1ccc(NCCN2CCOCC2)c([N+](=O)[O-])c1 (stereo not given) | -11.4 | 9.2 µM [rising, partial curve] | – |
| O=C1OC(c2ccc3c(c2)OCO3)=N/C1=C\c1ccc(C(=O)O)cc1 | 3.26 | 0.00517 µM [falling, full curve, poor fit] | – |
| COc1ccccc1OCc1cc(C(=O)NCc2ccc(N3CCCC3=O)cc2)no1 | 12.2 | – | 0.13 µM [rising, full curve, poor fit] |
| Cc1nonc1OCCN1CCN(c2ccccc2[N+](=O)[O-])CC1 | 19.1 | 0.58 µM [falling, single point] | 0.58 µM [falling, single point] |
| CC(C)CNC(=S)N1CCC(c2nc(-c3ccc(F)cc3)no2)CC1 | – | 6.51 µM [rising, single point] | 1.46 µM [falling, partial curve] |
| N#Cc1c(/N=C/N2CCCC2)oc(-c2ccccc2)c1-c1ccccc1 | – | 4.11 µM [rising, single point] | – |
| O=C(C1CC(=O)N(c2ccccc2)C1)N1CCN(c2ccccc2F)CC1 (stereo not given) | 3.76 | 6.51 µM [rising, single point] | – |
| O=C(CSc1ccccn1)Nc1ccc(F)c([N+](=O)[O-])c1 | 41.3 | – | – |
| CN(C)CCNc1nc2sc3c(c2c(=O)n1Cc1ccccc1)CCCCC3 | 27.8 | 0.58 µM [falling, single point] | 0.146 µM [rising, full curve, poor fit] |
| CCCn1nc(NC(=O)c2ccncc2)c2cc3ccccc3nc21 | -10.5 | 0.651 µM [rising, full curve, poor fit] | – |
| CC(Cl)C(=O)Nc1ccccc1C#N (stereo not given) | -23.8 | – | – |
| CCOc1ccccc1-n1c(SCC(=O)N(C(C)C)C(C)C)nnc1-c1cccnc1 | 44.2 | – | 10.3 µM [rising, partial curve, poor fit] |
| COc1ccc(S(=O)(=O)N2CCCCC2)cc1NS(=O)(=O)c1ccccc1F | -44.8 | – | – |

| Compound | cell number change [%] | AC50 [1] | AC50 [2] |
| --- | --- | --- | --- |
| CCCCOCCCNC(=O)c1c(-c2ccccc2)noc1C | 30.5 | – | 2.91 µM [rising, partial curve] |
| CCc1ccc(S(=O)(=O)Nc2ccc(-c3ccc4nnc(C)n4n3)cc2)s1 | -9.44 | 32.6 µM [falling, single point] | – |
| COc1ccc(OC)c(C2CC(c3ccccc3)=NN2C(=S)Nc2ccccc2)c1 (stereo not given) | 22.8 | 0.146 µM [rising, full curve, poor fit] | – |
| CC(=O)N(CN1C(=O)c2ccc([N+](=O)[O-])cc2C1=O)c1cccc(C(=O)O)c1 | 17.8 | 6.51 µM [falling, single point] | 3.66 µM [falling, partial curve] |
| O=C(Oc1cccc(NC2=NS(=O)(=O)c3ccccc32)c1)c1ccncc1 | -28.2 | – | – |
| Cc1ccc(-n2c(=O)c3c4c(sc3n(Cc3cc(=O)n5ccccc5n3)c2=O)CCC4)cc1C | -6.48 | 2.59 µM [rising, partial curve] | 0.092 µM [rising, full curve, poor fit] |
| CC(C)OCCCNC(=O)c1ccc(C2SCC(=O)N2Cc2ccco2)cc1 (stereo not given) | 31.9 | – | 0.0731 µM [rising, full curve, poor fit] |
| Cc1nc(Oc2ccc(S(=O)(=O)N3CCOCC3)cc2Cl)c2c3c(sc2n1)CCCC3 | 17.1 | – | – |
| S=C(NCc1ccccc1)NCc1ccccc1Cl | 16.2 | 6.51 µM [rising, single point] | – |
| COc1ccccc1C1N(c2cc(Cl)ccc2OC)C(=O)C2CCCN21 (stereo not given) | -26.6 | 0.651 µM [falling, full curve] | – |
| Cn1c2ccccc2c2nnc(SCC(=O)NCc3ccoc3)nc21 | 31.2 | – | 29.1 µM [rising, single point] |
| CCCc1cc2c(OC(=O)CC)c(-c3ccc(C(=O)OCC)o3)c(=O)oc2cc1OC | -47.4 | 0.00517 µM [falling, full curve, poor fit] | 0.326 µM [falling, full curve] |
| O=C(NN1CCCCC1)c1cccc2ccccc12 | 105 | – | 0.13 µM [rising, full curve, poor fit] |
| CCn1c(=O)c(C(=O)CN2CCN(Cc3ccc4c(c3)OCO4)CC2)c(N)n(Cc2ccccc2)c1=O | 13.3 | – | – |
| CCOC(=O)c1cccc(NC(=O)Nc2ccc3c(c2)C(=O)OC3)c1 | 16.5 | 7.31 µM [rising, partial curve] | – |
| CCc1cc2c(COC(=O)c3cccc(S(C)(=O)=O)c3)cc(=O)oc2cc1O | 10.3 | 29.1 µM [falling, single point] | – |
| CCCCCc1cc(=O)oc2c(C(CCN3CCCC3)c3cc(OC)c(OC)c(OC)c3)c(OC)cc(OC)c12 (stereo not given) | -23.2 | 16.4 µM [falling, single point] | – |
| COc1ccc2ncc(S(=O)(=O)c3ccccc3)c(N3CCN(c4ccccc4)CC3)c2c1 | 0.0836 | 6.51 µM [rising, single point] | – |
| COc1cc([N+](=O)[O-])ccc1NC(=S)Nc1cccc(C(=O)O)c1 | – | 10.3 µM [rising, partial curve, poor fit] | – |
| O=C(NCCC1=CCCCC1)c1cc(-c2ccncc2)nc2ccccc12 | -44.7 | – | – |

| Compound | cell number change [%] | AC50 [1] | AC50 [2] |
| --- | --- | --- | --- |
| O=C(O)c1sc2cc(C(F)(F)F)cnc2c1-c1ccccc1 | 6.32 | 0.291 µM [rising, full curve] | – |
| O=C(COC(=O)c1cn(-c2ccccc2)nc1-c1cccs1)NC1CC1 | 152 | 20.6 µM [rising, partial curve] | 20.6 µM [rising, partial curve] |
| COCc1ccc(C(=O)N2CCCC(CCC(=O)NCc3ccccc3F)C2)o1 (stereo not given) | -21.8 | 0.731 µM [falling, partial curve, poor fit] | – |
| COCCn1c(-c2ccc(OC)cc2)nc2ccccc21 | 5.17 | 0.58 µM [falling, single point] | – |
| CC(=O)c1c(C)nc(-c2ccccc2)n1O | -18 | 6.51 µM [falling, single point] | – |
| O=C(CSC1CS(=O)(=O)c2cc([N+](=O)[O-])ccc21)NNC(=O)c1ccc(Cl)cc1 (stereo not given) | 18.4 | 29.1 µM [rising, single point] | – |
| Cc1cc(C(F)(F)F)cc(NNC(=O)NC(=O)c2ccc(Cl)cc2)n1 | -13.4 | – | – |
| COc1ccc(NC(=O)CSc2nnc(CNC(=O)c3ccco3)n2-c2ccccc2OC)cc1 | 31.6 | 29.1 µM [rising, single point] | 20.6 µM [rising, partial curve, poor fit] |
| CCN(CC)c1ccc(/C=N/NC(=O)CNC(=O)C2COc3ccccc3O2)c(O)c1 (stereo not given) | – | 25.1 µM [rising, single point] | – |
| Cc1ccc(CN(C(=O)Cn2nnc3ccccc32)C(C(=O)NCc2ccco2)c2cccs2)cc1 (stereo not given) | -23.9 | 0.651 µM [rising, full curve, poor fit] | – |
| C#CC(CO)N(CCN(Cc1ccccc1)C(C#C)CO)Cc1ccccc1 (stereo not given) | -17 | 10.3 µM [falling, partial curve, poor fit] | – |
| COc1cc(OC)cc(-n2nnnc2SCC(=O)Nc2ccc(C(C)=O)cc2)c1 | – | 0.58 µM [rising, single point] | – |
| O=C(N/N=C/C1CC=CCC1)c1cc(-c2cccnc2)nc2ccccc12 (stereo not given) | 82.4 | – | 18.4 µM [rising, partial curve] |
| COc1cc([N+](=O)[O-])ccc1NC(=O)CC1SC(=Nc2ccc(F)cc2)N(CCC2=CCCCC2)C1=O (stereo not given) | – | 16.4 µM [falling, partial curve] | – |
| COc1cc(/C=C/C(=O)O)cc(S(=O)(=O)Nc2ccc3nc(C)sc3c2)c1OC | -31.1 | – | 29.1 µM [falling, single point] |
| COc1cc(OC)c(C2CC(=O)N3CN(c4ccccc4C)CSC3=C2C#N)cc1OC (stereo not given) | – | 20.6 µM [rising, single point] | – |
| Cc1ccc(C(=O)Oc2ccc([N+](=O)[O-])cc2)cc1S(=O)(=O)N1CCCCCC1 | -5.52 | 29.1 µM [falling, single point] | – |
| O=C1c2ccccc2C(=O)N1CCc1nc(-c2ccc(Cl)cc2)no1 | 12.8 | – | – |
| Cn1c(CNC(=O)c2ccccc2F)nnc1SCC(=O)NCc1ccccc1 | -30.9 | 6.51 µM [falling, single point] | – |
| CN(C)CCCN(C(=O)c1ccc(C(=O)c2ccccc2)cc1)c1nc2cc3c(cc2s1)OCCO3 | -0.348 | 0.92 µM [rising, full curve, poor fit] | – |

Quoted at random: four records from the list

| Compound | cell number change [%] | AC50 [1] | AC50 [2] |
| --- | --- | --- | --- |
| COCCn1c(-c2ccc(OC)cc2)nc2ccccc21 | 5.17 | 0.58 µM [falling, single point] | – |
| COCc1ccc(C(=O)N2CCCC(CCC(=O)NCc3ccccc3F)C2)o1 (stereo not given) | -21.8 | 0.731 µM [falling, partial curve, poor fit] | – |
| O=C1c2ccccc2C(=O)N1CCc1nc(-c2ccc(Cl)cc2)no1 | 12.8 | – | – |
| Cc1cc(C(F)(F)F)cc(NNC(=O)NC(=O)c2ccc(Cl)cc2)n1 | -13.4 | – | – |

From PubChem BioAssay AID2685 (National Center for Advancing Translational Sciences (NCATS), 2010)
